Measurements reported in doi:10.1101/2024.05.07.592940.
No constants are given. Whether binding was seen depends on the method and setting. Binding seen in cells or lysates may run through a third protein. A yes stands for co-enrichment or nearness to the bait. Other partners may have been found.

Amino acid sequences for entries named in this document (tags omitted).
UniProt P01106: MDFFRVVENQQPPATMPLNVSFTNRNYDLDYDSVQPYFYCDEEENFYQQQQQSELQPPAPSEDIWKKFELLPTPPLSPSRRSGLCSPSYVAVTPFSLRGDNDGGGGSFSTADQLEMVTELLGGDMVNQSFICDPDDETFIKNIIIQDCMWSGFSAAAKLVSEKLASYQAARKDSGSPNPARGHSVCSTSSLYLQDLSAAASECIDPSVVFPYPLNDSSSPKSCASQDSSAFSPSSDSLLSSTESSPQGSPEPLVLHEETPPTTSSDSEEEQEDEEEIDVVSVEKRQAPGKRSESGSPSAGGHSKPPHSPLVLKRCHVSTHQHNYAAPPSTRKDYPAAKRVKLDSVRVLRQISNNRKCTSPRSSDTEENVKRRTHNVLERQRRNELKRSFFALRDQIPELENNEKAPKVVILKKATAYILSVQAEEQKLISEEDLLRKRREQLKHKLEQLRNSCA

Molecular target: T1, non-receptor protein tyrosine phosphatase type 2 (PTPN2), endogenous (human (endogenous in MOLM13)) (UniProt P17706)
T1 sequence: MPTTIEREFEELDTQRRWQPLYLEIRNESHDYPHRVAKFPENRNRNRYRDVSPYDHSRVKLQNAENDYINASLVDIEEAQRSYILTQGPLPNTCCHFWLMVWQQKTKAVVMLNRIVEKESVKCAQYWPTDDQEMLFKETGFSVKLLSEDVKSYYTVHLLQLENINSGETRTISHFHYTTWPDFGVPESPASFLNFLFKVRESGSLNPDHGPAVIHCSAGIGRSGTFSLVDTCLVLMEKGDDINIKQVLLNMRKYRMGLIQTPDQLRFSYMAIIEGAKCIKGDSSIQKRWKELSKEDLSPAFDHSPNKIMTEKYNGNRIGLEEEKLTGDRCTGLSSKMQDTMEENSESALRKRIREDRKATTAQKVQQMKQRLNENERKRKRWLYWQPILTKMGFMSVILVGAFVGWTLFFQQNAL
Test: affinity purification with mass spectrometry

Question: “C-MYC, endogenous (from UniProt P01106 1-454)” was tested. Which binding did it give?
Answer: binds
